According to patent publication US9409879B2, “Total synthesis of redox-active 1.4-naphthoquinones and their metabolites and their therapeutic use as antimalarial and schistomicidal agents” (CENTRE NATIONAL DE LA RECHERCHE SCIENTIFIQUE, priority 2011, dated 2016):
pIC50: −log10 of the molar value.

Tested on: P. falciparum strain Dd2
Test: 3H-hypoxanthine incorporation antiproliferation assay, P. falciparum Dd2
Format: cell-based
Details: Plasmodium falciparum
Description: Infected erythrocytes in ring stage (0.5% parasitemia, 2.5% hematocrit) in 96-well plates were exposed to the compounds for 48 h and then to radioactive hypoxanthine for 24 h. The amount of radioactivity in precipitable material served as an index of cell proliferation.

CCN(CC)CCCC(C)Nc1ccnc2cc(Cl)ccc12 (stereo not shown) [Chloroquine, reference compound]
pIC50: 6.96
